# According to the supplement of paper PMC8728848:
# The list shows a part of the results.
# B1: cFel (Cyprinus carpio), P68512 (protein)
# chain: LDCTVIDGNLKQIDAGSGSVVGVNNLNETFVLIDNVFTKISGSLKHFSVGPAGQLGVNTANNIFKYQSGGFVQLAGLLKQVDAGGDQIIAGVNMYDDIYCLNMDANNKWPSSNTPWVQINGKLKYYSCGPYSCWGVNSNDQIFIMKDVSSNVCSGSGSFINIPGLLSMIEVATDGSVFGVNSQGNLYQRTGVTRSKPDGTDWISMVACPNGHKHVSFDLGVLWLVCVDGSIRKCILTD
# Tests used:
# Assay in all cases: glycan array binding signal (z-score within array); higher = stronger binding
# Settings in all cases: glycan notation: IUPAC condensed, linker removed
# Fuc(a1-2)Gal = biological target: Fuc(a1-2)Gal
# Method in brief: (§1)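 Negative Z-scores can be read as non-binding. The Z-score is calculated within each array and then averaged across arrays of one protein sequence at different concentrations or buffers and across linkers. Arrays, 3228 in all, were curated from the Consortium for Functional Glycomics database and kept only where the protein sequence was available.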
# Fuc(a1-2)Gal(b1-3)GalNAc = biological target: Fuc(a1-2)Gal(b1-3)GalNAc
# Method in brief: as §1
# [1] = biological target: Fuc(a1-2)Gal(b1-3)GalNAc(a1-3)[Fuc(a1-2)]Gal(b1-4)Glc
# Method in brief: as §1
# [2] = biological target: Fuc(a1-2)Gal(b1-3)GalNAc(a1-3)[Fuc(a1-2)]Gal(b1-4)GlcNAc
# Method in brief: as §1
# [3] = biological target: Fuc(a1-2)Gal(b1-3)GalNAc(b1-3)Gal
# Method in brief: as §1
# [4] = biological target: Fuc(a1-2)Gal(b1-3)GalNAc(b1-3)Gal(a1-4)Gal(b1-4)Glc
# Method in brief: as §1
# [5] = biological target: Fuc(a1-2)Gal(b1-3)GalNAc(b1-4)[Neu5Ac(a2-3)]Gal(b1-4)Glc
# Method in brief: as §1
# Fuc(a1-2)Gal(b1-3)GlcNAc = biological target: Fuc(a1-2)Gal(b1-3)GlcNAc
# Method in brief: as §1
# [6] = biological target: Fuc(a1-2)Gal(b1-3)GlcNAc(b1-2)Man(a1-3)[Fuc(a1-2)Gal(b1-3)GlcNAc(b1-2)Man(a1-6)]Man(b1-4)GlcNAc(b1-4)GlcNAc
# Method in brief: as §1
# [7] = biological target: Fuc(a1-2)Gal(b1-3)GlcNAc(b1-2)Man(a1-3)[Fuc(a1-2)Gal(b1-3)GlcNAc(b1-2)Man(a1-6)]Man(b1-4)GlcNAc(b1-4)[Fuc(a1-6)]GlcNAc
# Method in brief: as §1
# [8] = biological target: Fuc(a1-2)Gal(b1-3)GlcNAc(b1-3)Gal(b1-4)Glc
# Method in brief: as §1
# [9] = biological target: Fuc(a1-2)Gal(b1-3)GlcNAc(b1-3)GalNAc
# Method in brief: as §1
# [10] = biological target: Fuc(a1-2)Gal(b1-3)GlcNAc(b1-3)[Fuc(a1-2)Gal(b1-3)GlcNAc(b1-6)]GalNAc
# Method in brief: as §1
# [11] = biological target: Fuc(a1-2)Gal(b1-3)GlcNAc(b1-3)[Gal(b1-4)GlcNAc(b1-6)]Gal(b1-4)Glc
# Method in brief: as §1
# [12] = biological target: Fuc(a1-2)Gal(b1-3)GlcNAc(b1-3)[Neu5Ac(a2-6)Gal(b1-4)GlcNAc(b1-6)]Gal(b1-4)Glc
# Method in brief: as §1
# [13] = biological target: Fuc(a1-2)Gal(b1-3)GlcNAc6S
# Method in brief: as §1
# [14] = biological target: Fuc(a1-2)Gal(b1-3)[Fuc(a1-4)]GlcNAc
# Method in brief: as §1
# [15] = biological target: Fuc(a1-2)Gal(b1-3)[Fuc(a1-4)]GlcNAc(b1-2)Man(a1-3)[Fuc(a1-2)Gal(b1-3)[Fuc(a1-4)]GlcNAc(b1-2)Man(a1-3)]Man(b1-4)GlcNAc(b1-4)GlcNAc
# Method in brief: as §1
# [16] = biological target: Fuc(a1-2)Gal(b1-3)[Fuc(a1-4)]GlcNAc(b1-2)Man(a1-3)[Fuc(a1-2)Gal(b1-3)[Fuc(a1-4)]GlcNAc(b1-2)Man(a1-6)]Man(b1-4)GlcNAc(b1-4)[Fuc(a1-6)]GlcNAc(b1-4)[Fuc(a1-6)]GlcNAc
# Method in brief: as §1
# [17] = biological target: Fuc(a1-2)Gal(b1-3)[Fuc(a1-4)]GlcNAc(b1-3)[Fuc(a1-3)[Gal(b1-4)]GlcNAc(b1-6)]Gal(b1-4)Glc
# Method in brief: as §1
# [18] = biological target: Fuc(a1-2)Gal(b1-3)[Fuc(a1-4)]GlcNAc(b1-3)[Gal(b1-4)GlcNAc(b1-6)]Gal(b1-4)Glc
# Method in brief: as §1
# [19] = biological target: Fuc(a1-2)Gal(b1-4)Fuc(a1-3)]GlcNAc(b1-2)Man(a1-3)[Fuc(a1-2)Gal(b1-4)[Fuc(a1-3)]GlcNAc(b1-2)Man(a1-6)]Man(b1-4)GlcNAc(b1-4)GlcNAc
# Method in brief: as §1
# Fuc(a1-2)Gal(b1-4)Glc = biological target: Fuc(a1-2)Gal(b1-4)Glc
# Method in brief: as §1
# Fuc(a1-2)Gal(b1-4)Glc6S = biological target: Fuc(a1-2)Gal(b1-4)Glc6S
# Method in brief: as §1
# Fuc(a1-2)Gal(b1-4)GlcNAc = biological target: Fuc(a1-2)Gal(b1-4)GlcNAc
# Method in brief: as §1
# [20] = biological target: Fuc(a1-2)Gal(b1-4)GlcNAc(b1-2)Man
# Method in brief: as §1
# [21] = biological target: Fuc(a1-2)Gal(b1-4)GlcNAc(b1-2)Man(a1-3)[Fuc(a1-2)Gal(b1-4)GlcNAc(b1-2)Man(a1-6)]Man(b1-4)GlcNAc(b1-4)GlcNAc
# Method in brief: as §1
# [22] = biological target: Fuc(a1-2)Gal(b1-4)GlcNAc(b1-2)Man(a1-3)[Fuc(a1-2)Gal(b1-4)GlcNAc(b1-2)Man(a1-6)]Man(b1-4)GlcNAc(b1-4)[Fuc(a1-6)]GlcNAc
# Method in brief: as §1
# [23] = biological target: Fuc(a1-2)Gal(b1-4)GlcNAc(b1-2)[Fuc(a1-2)Gal(b1-4)GlcNAc(b1-4)]Man(a1-3)[Fuc(a1-2)Gal(b1-4)GlcNAc(b1-2)Man(a1-6)]Man(b1-4)GlcNAc(b1-4)GlcNAc
# Method in brief: as §1
# [24] = biological target: Fuc(a1-2)Gal(b1-4)GlcNAc(b1-3)Gal(b1-4)GlcNAc
# Method in brief: as §1
binder,measurement,setting,value
B1,glycan array binding signal (z-score),Fuc(a1-2)Gal,-0.805
same,glycan array binding signal (z-score),Fuc(a1-2)Gal(b1-3)GalNAc,-0.471
same,glycan array binding signal (z-score),[1],-1.11
same,glycan array binding signal (z-score),[2],-0.492
same,glycan array binding signal (z-score),[3],-1.02
same,glycan array binding signal (z-score),[4],-0.654
same,glycan array binding signal (z-score),[5],0.211
same,glycan array binding signal (z-score),Fuc(a1-2)Gal(b1-3)GlcNAc,0.028
same,glycan array binding signal (z-score),[6],1.14
same,glycan array binding signal (z-score),[7],-0.998
same,glycan array binding signal (z-score),[8],0.919
same,glycan array binding signal (z-score),[9],-0.586
same,glycan array binding signal (z-score),[10],-0.457
same,glycan array binding signal (z-score),[11],1.55
same,glycan array binding signal (z-score),[12],-1.02
same,glycan array binding signal (z-score),[13],-1.06
same,glycan array binding signal (z-score),[14],-0.189
same,glycan array binding signal (z-score),[15],1.04
same,glycan array binding signal (z-score),[16],-1.33
same,glycan array binding signal (z-score),[17],-0.327
same,glycan array binding signal (z-score),[18],0.169
same,glycan array binding signal (z-score),[19],-0.395
same,glycan array binding signal (z-score),Fuc(a1-2)Gal(b1-4)Glc,-0.58
same,glycan array binding signal (z-score),Fuc(a1-2)Gal(b1-4)Glc6S,-0.105
same,glycan array binding signal (z-score),Fuc(a1-2)Gal(b1-4)GlcNAc,0.351
same,glycan array binding signal (z-score),[20],1.19
same,glycan array binding signal (z-score),[21],-0.464
same,glycan array binding signal (z-score),[22],1.24
same,glycan array binding signal (z-score),[23],-0.603
same,glycan array binding signal (z-score),[24],-0.873

# Some of the entries so far, with bars between the fields:
binder | measurement | setting | value
B1 | glycan array binding signal (z-score) | [8] | 0.919
same | glycan array binding signal (z-score) | [9] | -0.586
